Most values lie at the floor of the assay. Slopes are relative: functional sequences can read slightly below zero.
tested on: Saccharomyces cerevisiae PS128 hsf1 delta, HSF1(1-493) fusion; assay: growth estimate (transactivation domain function in HSF1 fusion, heat-shock survival) (a.u. (slope of normalised read count over time)); higher = stronger growth at 37°C, i.e. more transactivation activity; details: library: random library

Row | Substance | growth estimate
1 | RPKVT | < -0.25
2 | CRGCRDWVGSVFWVRLPRES | < -0.25
3 | RYQLLRSPSGADV | < -0.25
4 | FGGKAAWEVSDVTSTLECLL | < -0.25
5 | RVGPGEMCFAAGVI | < -0.25
6 | HFATSATWPNSKEG | < -0.25
7 | HGRARRRTLDGRVRPSSVS | < -0.25
8 | SVCLHTDVLQPP | < -0.25
9 | VFSLIVPSR | < -0.25
10 | MPPS | < -0.25
11 | WRNLGNV | < -0.25
12 | FILILNSGGLWQCSVAVIFW | < -0.25
13 | QKDGYIWESLNFPARLLVDP | < -0.25
14 | RSCLAACP | < -0.25
15 | CVVGEDNFVNVNLWGSHNAF | < -0.25
16 | PKLGGTSVGSWKHFSSEFRQ | < -0.25
17 | VRPLGAVRFYIPKPKGRGSL | < -0.25
18 | GRS | < -0.25
19 | CTNPMHRLRWECSFQRSRAV | < -0.25
20 | EGGSTKLLQESRFAIGSLRS | < -0.25
21 | STSVYSSGSCVVRCILSHGI | < -0.25
22 | VARLYTAYGLLVLQGTGQLR | < -0.25
23 | YKMGRCGMRIRFTFAWVLMV | < -0.25

Row | Substance | growth estimate
24 | DCAS | < -0.25
25 | AGLFSSNTRVLDVVCGYGGC | < -0.25
26 | YSFLAQQRYRIRCLSRSDSD | < -0.25
27 | FRQPYGCFQSTGRSSPGSIG | < -0.25
28 | RRISL | < -0.25
29 | LNRGDRQAEQSPDMARPGST | < -0.25
30 | SEG | < -0.25
31 | RVVISCKCIIVMFRGRLLSC | < -0.25
32 | DNPAYYSITLGAGPVRVRIC | < -0.25
33 | FHLPLSFSRSGPTRKPAGGE | < -0.25
34 | IRPHQPAGYFWTPLVILHTV | < -0.25
35 | TLCDMLVRGRCSGGSLQLIV | -0.243
36 | GVNNPCD | < -0.25
37 | GFWVAMRLKGPMQN | < -0.25
38 | RKV | < -0.25
39 | MPVTSPIVFG | < -0.25
40 | GHPE | < -0.25
41 | KRYLKHRRC | < -0.25
42 | CPRPVLDPL | < -0.25
43 | GDMPSTSSSQILDSQIKCRV | < -0.25
44 | SGVAVLIADCKPVFAGLIPV | < -0.25
45 | VQARIIREEARCGLVLVHPP | < -0.25
46 | PTPHRCSATCPGGGS | < -0.25

Laid out differently: results already given.
LNRGDRQAEQSPDMARPGST
  growth estimate: < -0.25
MPVTSPIVFG
  growth estimate: < -0.25
VQARIIREEARCGLVLVHPP
  growth estimate: < -0.25

Carrying on:

Row | Substance | growth estimate
47 | KCIYE | < -0.25
48 | TDYTEPCRIVLIAPVQIPDL | < -0.25
49 | GVRSRQNLGDPFGSRNRS | < -0.25
50 | VRLAVPEPHTVLRVPYRELG | < -0.25
51 | TTRSSGPFPVFYRGVVGLEA | < -0.25
52 | EEVGCEIYWRCDA | < -0.25
53 | ANLTDIVQEYP | < -0.25
54 | ARRIIVPVSATATANTSCAD | < -0.25
55 | SSLGG | < -0.25
56 | QRPRVHTRDTLLINSQDWSL | < -0.25
57 | PWPL | < -0.25
58 | CPPVVY | < -0.25
59 | LWVTG | < -0.25
60 | TVGCSRRGW | < -0.25
61 | MSCPR | < -0.25
62 | YIRLN | < -0.25
63 | DRIKSQVGLWMARRE | < -0.25
64 | RANTARYKRYLPMRALRMVT | < -0.25
65 | FPATSYTAERK | < -0.25
66 | PSKSGVCTCNTGIALVCPSQ | < -0.25
67 | GALSLRSVLTHYQPSRRKVK | < -0.25
68 | FNTVTRIGVIRPVRNAPSSV | 0.402
69 | LPKVTGLGRPFGELMSMV | < -0.25

Row | Substance | growth estimate
70 | HSYLKDSTGSILCVLTYIRS | < -0.25
71 | IQTPCFGSPRDCKRKRSFLD | < -0.25
72 | TARV | < -0.25
73 | SCVETQDPCRHKALIVVS | -0.248
74 | LSTQRAIPGRRC | -0.248
75 | LLSVHIGRNLAVVNARGEGS | < -0.25
76 | SLFQYCRSDMLGWLRPSSLR | < -0.25
77 | LTGINESGEKVTVLLHVIYS | < -0.25
78 | PNHTILYSAECRFWTTCSRD | < -0.25
79 | GLDFF | -0.19
80 | LSNSRYSL | < -0.25
81 | TYSSIKETV | < -0.25
82 | LYMEPLG | < -0.25
83 | VLGSRSLLVGGRE | < -0.25
84 | RPITGTLN | < -0.25
85 | QGGPSAVQVLWLDLVILSEE | < -0.25
86 | SDTPGRTGWECGCNQLTVPS | < -0.25
87 | CRVIGAQLHRADCYVQSVPT | < -0.25
88 | LGSGSPGKATRQEIIVAPPR | < -0.25
89 | LFCQRQRTPTVQF | < -0.25
90 | DSLPTSTR | < -0.25
91 | KTMQRGQSGILGPARR | < -0.25
92 | TTSAVN | < -0.25

Row | Substance | growth estimate
93 | NPDVAINGRY | < -0.25
94 | GNAVTPYLRGDLG | < -0.25
95 | IEIFK | < -0.25
96 | LTIRHLTQIELLPG | < -0.25
97 | WGGSPQEGFLHGHTGRCREP | < -0.25
98 | NWESSVI | < -0.25
99 | RRDEIATSQTME | < -0.25
100 | SLLFSCDIADIA | < -0.25
101 | RLLKGDLMGRSREMCKG | < -0.25
102 | GNAPSGIYPVENSGVKAGFS | < -0.25
103 | GFQLW | < -0.25
104 | SRVICSPAS | < -0.25
105 | RVFVLARESPVVARQDPEVG | < -0.25
106 | DCVA | < -0.25
107 | LHKISSWHGCVTGAARSLRE | < -0.25
108 | RRSNILQPRIQRPYLHRKRR | < -0.25
109 | VRNKVNPVGTLLTLSEHATI | < -0.25
110 | NVGEWGKRFISGCFNRLNFA | < -0.25
111 | NRT | < -0.25
112 | LCKPITLQIY | < -0.25
113 | RKRCSAGEVRLDGQSHRPPD | < -0.25
114 | GDLPCVPGSVYSGTCDRMEA | < -0.25
115 | GKIRNEAIKFFCTATDLSTC | < -0.25

Row | Substance | growth estimate
116 | NIA | < -0.25
117 | RSIP | < -0.25
118 | SIDKARTVCCGRYQSKANRA | < -0.25
119 | MSVETPPAGAPAF | < -0.25
120 | PNSLGGGVLRPRGLLWRKVL | < -0.25
121 | KEMRI | < -0.25
122 | WVIDVASHWNARAICLRRDP | < -0.25
123 | YYGEVV | < -0.25
124 | GPCVPPIMARLLLEGRGTPL | < -0.25
125 | IGRCYDSTPCDAAQCQGVRA | -0.238
126 | CNEESELRRVIWKTRSSKCL | < -0.25
127 | CVRYQGCAHLLCVTPLHNQM | < -0.25
128 | GASSAM | < -0.25
129 | CPLLSGSHRYSGG | < -0.25
130 | NVQEFRLKVSGIRYAWPPRS | < -0.25
131 | TTSEHHPQVRVCPHVLSEQF | < -0.25
132 | WKGGVTWGYAVDVLPPG | < -0.25
133 | LPR | < -0.25
134 | TAVLLSSAKPRIFPFSSSFA | < -0.25
135 | SRPFFKIAMIIR | < -0.25
136 | IYETGVWQRPPATDPLKPSF | < -0.25
137 | GRYFGQSICPRS | < -0.25
138 | VARPCIRMARAR | < -0.25

Shown tab-delimited: entries from further up
Row	Substance	growth estimate
10	MPPS	< -0.25
11	WRNLGNV	< -0.25
14	RSCLAACP	< -0.25
15	CVVGEDNFVNVNLWGSHNAF	< -0.25
20	EGGSTKLLQESRFAIGSLRS	< -0.25
21	STSVYSSGSCVVRCILSHGI	< -0.25
22	VARLYTAYGLLVLQGTGQLR	< -0.25
23	YKMGRCGMRIRFTFAWVLMV	< -0.25
25	AGLFSSNTRVLDVVCGYGGC	< -0.25
31	RVVISCKCIIVMFRGRLLSC	< -0.25
32	DNPAYYSITLGAGPVRVRIC	< -0.25
38	RKV	< -0.25
44	SGVAVLIADCKPVFAGLIPV	< -0.25
48	TDYTEPCRIVLIAPVQIPDL	< -0.25
49	GVRSRQNLGDPFGSRNRS	< -0.25
51	TTRSSGPFPVFYRGVVGLEA	< -0.25
61	MSCPR	< -0.25
71	IQTPCFGSPRDCKRKRSFLD	< -0.25
72	TARV	< -0.25
82	LYMEPLG	< -0.25
83	VLGSRSLLVGGRE	< -0.25
91	KTMQRGQSGILGPARR	< -0.25
104	SRVICSPAS	< -0.25
106	DCVA	< -0.25
107	LHKISSWHGCVTGAARSLRE	< -0.25
111	NRT	< -0.25
113	RKRCSAGEVRLDGQSHRPPD	< -0.25
116	NIA	< -0.25
118	SIDKARTVCCGRYQSKANRA	< -0.25
121	KEMRI	< -0.25
127	CVRYQGCAHLLCVTPLHNQM	< -0.25
128	GASSAM	< -0.25
133	LPR	< -0.25
134	TAVLLSSAKPRIFPFSSSFA	< -0.25
138	VARPCIRMARAR	< -0.25

Next records

Row | Substance | growth estimate
139 | NVPSGIRTGDL | < -0.25
140 | DWPTMDDTRESPR | < -0.25
141 | TRNQRG | < -0.25
142 | RSEGVRRCPGRGHWAC | < -0.25
143 | QPEDDDSAWPKRIVAMTLLS | < -0.25
144 | FILQQLLLAVLCSSSPVCVV | < -0.25
145 | KGKVGWSFIARC | < -0.25
146 | LPNGRTCSRRASVVLGPYPA | < -0.25
147 | GYGPIVSRPHSRPCHCCSSR | < -0.25
148 | TLMYRL | < -0.25
149 | DRLFRTWQVALTLKGWGCST | < -0.25
150 | GQRAPA | < -0.25
151 | LSYVL | < -0.25
152 | VRFMCEFVGRELCDCDS | < -0.25
153 | LREPFPTILGAAAWYQYVSG | < -0.25
154 | PVFSVSECTLWRLGFSHPSN | -0.231
155 | TVLGSCRPGNRW | < -0.25
156 | WDSNIRTANGYHVTAQHVVL | < -0.25
157 | RYYVLLKPPVVLWDGRVHST | < -0.25
158 | DRRGHVCRPESGSK | < -0.25
159 | SFTLCWRELMGIHAG | < -0.25

Reference: the supplement of paper PMC5949888
